# Reference: PubChem BioAssay AID652272 (Drosophila RNAi Screening Center, 2013)
# Screen: 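Genome-wide knock-down search for components of Hedgehog signalling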 (primary screen)
# Cell system: Drosophila clone 8 (Cl8) cells
# Reagents: long dsRNA against Drosophila genes
# Measured: 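Plate reader light from a firefly reporter under a ptc promoter fragment that responds to Hedgehog, with Renilla light as transfection reference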
# Direction: firefly Hh reporter signal: higher = more ptc reporter light; Renilla reference signal: higher = more Renilla control light
# Hit rule: 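Hit when the z-score averaged over two replicates is under -2 or over +3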
# Meaning of the calls: active = hit: reporter lowered or raised; inactive = not a hit
# The deposit covers about 21,000 reagents; below is a random part of those that have a named target and a result. Over the whole deposit, 503 (2.4%) were called active. 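Raw plate light values, not normalised; calls rest on replicate z-scores that were not deposited; hits include reporter decreases as well as increases.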 The numbers tell different reagents against one gene apart. A plus sign joins genes that one reagent is predicted to hit. Not stated in the record: the amount of reagent, the time to read-out.
target,reagent,"firefly Hh reporter signal, replicate 1","firefly Hh reporter signal, replicate 2","firefly Hh reporter signal, replicate 3","Renilla reference signal, replicate 1","Renilla reference signal, replicate 2",outcome
CG32437,1,1.69e5,1.45e5,,5873,4144,inactive
Bace,1,5.20e5,83170,,3800,3800,inactive
lncRNA:CR43421,1,1.45e5,2.75e5,,4112,12247,inactive
CG34169,1,1.12e5,3.55e5,,3132,16180,inactive
CG12347,1,4.75e5,1.02e5,,30448,2813,inactive
CG10600,1,60274,48337,,2417,2055,inactive
akirin,1,76331,25881,,5361,2672,active
ALiX,1,94986,96461,,2042,2516,inactive
CG3124,1,48128,14756,,672,1704,inactive
SP,1,40677,56981,61371,4539,4225,inactive
stnB + stnA,1,4.85e5,92576,,1810,1810,inactive
stnB + stnA,2,6.34e5,2.45e5,,33549,5841,inactive
stnB + stnA,3,64329,2.21e5,,1869,8386,inactive
fu,1,1.06e5,34272,,14421,1238,active
CG15390,1,1.37e5,1.11e5,,3483,2464,inactive
slif,1,1.64e5,1.26e5,,6960,5147,inactive
CG13713,1,81924,61692,,7831,4648,inactive
ind,1,40160,,,2646,1492,inactive
Nha1,1,1.73e5,65827,,6432,2596,inactive
jet,1,64953,41830,,2886,1873,inactive
CG32483,1,90480,1.99e5,,2598,6854,inactive
Elal,1,1.65e5,72322,,6929,2800,inactive
CG43446,1,58396,1.99e5,,12273,4898,inactive
CG34297,1,1.55e5,,,3968,,inactive
GstT4,1,80405,1.02e5,,2327,2149,inactive
omd,1,1.44e5,90040,,5106,3504,inactive
hfw,1,65264,1.49e5,,1692,6880,inactive
CG14646,1,1.76e5,7.10e5,1.05e5,6402,38692,inactive
Polr3D,1,66886,37177,,3126,1504,inactive
CG30376,1,79733,1.85e5,,2219,8304,inactive
CG31759,1,5.99e5,2.19e5,,30935,8008,inactive
pont,1,95600,1.43e5,,1801,2537,active
Cyp4e1,1,64981,48633,,1563,3467,inactive
CG43219,1,3.25e5,,,6516,,inactive
Cog1,1,1.28e5,88660,,5274,3122,inactive
mre11,1,1.59e5,8.28e5,1.49e5,5949,45056,inactive
CG8578,1,1.01e5,90853,,2681,2001,inactive
CG34038,1,1.09e5,1.98e5,,2928,8122,inactive
tx,1,83213,1.02e5,,2051,2880,inactive

Only “firefly Hh reporter signal, replicate 1” (7 entries from above):
akirin: 76331
ALiX: 94986
CG3124: 48128
SP: 40677
stnB + stnA #1: 4.85e5
stnB + stnA #2: 6.34e5
stnB + stnA #3: 64329
